Laboratory results from PubChem BioAssay AID504467 (National Center for Advancing Translational Sciences (NCATS), 2011).
The campaign covered roughly 330,000 compounds. About 7,700 (2.3%) were called active. Inconclusive results, whose numbers are uncertain, are shown with a selection of clear calls. The call rests on the fitted dose curve; in most records, active means well fitted inhibition curve with a large enough effect; inconclusive means small, poorly fitted or top-dose-only effect, or effect the other way; inactive means flat fitted curve, though single readings scatter. Potencies of inconclusive entries are doubtful fits and often do not repeat.
On the % scale 0 is the no-effect control and ±100 the full control effect; potency means the concentration at half of the fitted maximal effect.

Assay: qHTS screen for small molecules that inhibit ELG1-dependent DNA repair in human embryonic kidney (HEK293T) cells expressing luciferase-tagged ELG1; further: nearly all actives have a fitted effect of over 55% in size
Details: HEK293T ELG1-luciferase reporter, luminescence, 16 h, DNA damage induced by 5-fluorouridine; activity change, negative = inhibition: at 46.1 µM (top of the series)
Procedure, shortened: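 Quantitative HTS, concentration-response format. 2,000 cells/well co-treated with 5-fluorouridine and compound, 16 hr in 5% CO2 at 37 °C; ONE-Glo luminescence read after 30 min.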
With `Cc1nn(CC(=O)NC2(C)CCS(=O)(=O)C2)c(C)c1S(=O)(=O)N(C)C` (stereo not given) the Potency was inconclusive: 29.1 µM [activator, partial curve, poor fit].
In the case of `O=C(Oc1ccc(/C=N/NC(=O)c2ccccn2)cc1)c1cccc(Br)c1`, the Potency is reported as inconclusive: 14.6 µM [activator, partial curve].
For `CCSC1(SCC)N=C(N)C2(C#N)C(c3ccc(F)cc3)C12C#N` (stereo not given), the Potency was inconclusive: 0.58 µM [inhibitor, partial curve, poor fit].
For `Cc1ccc(C(C)C)cc1NC(=O)Nc1ccc([N+](=O)[O-])cc1`, the Potency was inconclusive: 18.3 µM [inhibitor, partial curve].
For `CC(=O)N(CCc1cccc(C)c1)Cc1cc2cc(C)ccc2[nH]c1=O`, the Potency was inconclusive: 32.6 µM [inhibitor, single point].
With `CN(C1CCCCC1)S(=O)(=O)c1ccc(NC(=O)c2ccc(Br)o2)cc1` the Potency was inconclusive: 29.1 µM [inhibitor, single point].
For `CCC(C)Sc1ccc(-c2nc3ccc(C)cn3c2NCc2ccccc2)cc1` (stereo not given), the Potency was inconclusive: 18.3 µM [activator, partial curve].
With `O=C(Nc1ccccc1)c1cccnc1NCCc1ccccc1` the “activity change, negative = inhibition” value was inactive: 1.98%.
With `O=C(COC(=O)/C=C/c1ccc(F)cc1)Nc1ccccc1-c1ccccc1` the Potency was inconclusive: 16.4 µM [activator, single point].
In the case of `O=C(CSc1n[nH]c(-c2cccs2)n1)N1CCOCC1`, the Potency is reported as inconclusive: 32.6 µM [activator, single point].
In the case of `CCN(CC)S(=O)(=O)c1cccc(NC(=O)CN(C)C2CCCCC2)c1`, the “activity change, negative = inhibition” value is reported as inactive: -15.6%.
With `CCOC(=O)N/N=C/C=C/c1ccccc1[N+](=O)[O-]` the Potency was inconclusive: 29.1 µM [activator, single point].
With `COC(/C=C/Nc1ccc(C)cc1)=C(C#N)C#N` the Potency was inconclusive: 0.103 µM [activator, full curve, poor fit].
With `CCc1ccc(NC(=O)CCC(=O)N2CCSc3ccccc32)cc1` the “activity change, negative = inhibition” value was inactive: -1.36%.
With `CC1(C2CC2)NC(=O)N(CC(=O)N2CCN(c3ccccc3)CC2)C1=O` (stereo not given) the “activity change, negative = inhibition” value was inactive: 5.78%.
In the case of `CSc1nc2ccc(NC(=O)C3=NNC(=O)CC3)cc2s1`, the Potency is reported as inconclusive: 20.6 µM [activator, partial curve, poor fit].
With `Cc1cccnc1Nc1nc(-c2ccc(F)cc2)cs1` the Potency was inconclusive: 7.94 µM [activator, partial curve, poor fit].
In the case of `O=C(CCc1ccccc1)Nc1nnc(-c2ccccn2)o1`, the “activity change, negative = inhibition” value is reported as inactive: 14.5%.
For `CCOc1cc(/C=C2/N=C(C)C(C(=O)OC)=C2O)ccc1O`, the “activity change, negative = inhibition” value was inactive: -7.62%.
For `CCOc1ccccc1/C=C/C(=O)c1ccc(Cl)cc1`, the Potency was inconclusive: 1.3 µM [inhibitor, full curve, poor fit].
With `OCC1(CCOc2ccccc2)CCN(Cc2ccc(OC(F)F)cc2)CC1` the Potency was inconclusive: 14.6 µM [inhibitor, partial curve, poor fit].
For `COC(=O)c1ccc(NC(=O)CSc2nc(=O)n3cccc(C)c3n2)cc1`, the “activity change, negative = inhibition” value was inactive: -3.89%.
With `O=C(/C=C/c1ccco1)Oc1cc(Br)cc(/C=N/NC(=O)c2ccccc2O)c1` the Potency was inconclusive: 2.59 µM [inhibitor, partial curve, poor fit].
In the case of `COc1ccc(NC(=O)c2ccc(NC(=O)COC(=O)CC(NC(=O)c3ccccc3Cl)c3ccccc3)cc2)cc1` (stereo not given), the Potency is reported as inconclusive: 16.4 µM [activator, single point].
With `O=[N+]([O-])c1ccc(-c2cnc(NO)nc2)cc1` the Potency was inconclusive: 20.6 µM [activator, single point].
For `Nc1nc(-c2ccc3c(c2)CCCC3)cs1`, the Potency was inconclusive: 6.51 µM [activator, partial curve].
With `O=C(c1ccc(Br)s1)N1CCN(c2ccccn2)CC1` the “activity change, negative = inhibition” value was inactive: -8.63%.
For `COc1cccc(NC(=O)CSC(N)=O)c1`, the Potency was inconclusive: 25.9 µM [inhibitor, single point].
For `CCOC(=O)N1CCN(C(=O)c2sc3nc(-c4ccc(F)cc4)cn3c2C)CC1`, the Potency was active: 20.6 µM.
With `Oc1cccc(Nc2nc(-c3ccccc3Cl)nc3ccccc23)c1` the Potency was inconclusive: 29.1 µM [inhibitor, single point].
With `Cc1occc1C(=O)N1N=C(C2CC2)CC1(O)C(F)(F)F` (stereo not given) the “activity change, negative = inhibition” value was inactive: -2.25%.
With `CC(C)(C)n1ncc2c(=O)n(Cc3c(Cl)cccc3Br)cnc21` the “activity change, negative = inhibition” value was inactive: -23.1%.
In the case of `Cc1cccc(NC(=O)CN2CCN(C(=O)c3oc4c(Cl)cccc4c3C)CC2)c1C`, the Potency is reported as inconclusive: 16.4 µM [inhibitor, single point].
In the case of `CCc1ccc(OCC(=O)Nc2ccncc2)cc1`, the “activity change, negative = inhibition” value is reported as inactive: 5.16%.
For `COc1ccccc1NC(=O)NCc1ccc2c(c1)OCO2`, the “activity change, negative = inhibition” value was inactive: 21.7%.
In the case of `O=C(Nc1cccc(-c2cnc3ccccc3n2)c1)c1ccco1`, the Potency is reported as inconclusive: 20 µM [inhibitor, single point].
For `O=C(CCc1nc(-c2ccccc2Cl)no1)Nc1cccnc1`, the Potency was inconclusive: 23.1 µM [inhibitor, partial curve, poor fit].
For `Nc1ccccc1S(=O)(=O)NC1=NCCCCC1`, the “activity change, negative = inhibition” value was inactive: 0.151%.
With `Cc1c(CCC(=O)NCCCN2CCCC2=O)c(=O)oc2cc(O)ccc12` the Potency was inconclusive: 5.8 µM [activator, partial curve, poor fit].
In the case of `COc1ccc(C2CC(c3ccccc3)=NN2C(=O)CSc2nccc(=O)[nH]2)cc1` (stereo not given), the Potency is reported as inconclusive: 18.4 µM [activator, single point].
For `O=C(NN1CCOCC1)c1cc(Cl)ccc1Cl`, the “activity change, negative = inhibition” value was inactive: -2.44%.
For `CCN(CC(=O)Nc1c(F)cccc1F)C(=O)c1n[nH]c2ccccc12`, the “activity change, negative = inhibition” value was inactive: -7.52%.
With `N#C/C(=C(\O)Cc1ccccc1)c1nc2ccccc2[nH]1` the Potency was inconclusive: 29.1 µM [activator, partial curve, poor fit].
For `Cc1ccc2nc(SCC(=O)N3CCC(Cc4ccccc4)CC3)nc(=O)n2c1`, the Potency was inconclusive: 29.1 µM [inhibitor, single point].
For `Cc1ccc(S(=O)(=O)Nc2ccsc2C#N)cc1`, the “activity change, negative = inhibition” value was inactive: -2.98%.
In the case of `Cc1ccc(NC(=O)CSc2nnc(Cn3c(=O)sc4ccccc43)n2C)cc1Cl`, the “activity change, negative = inhibition” value is reported as inactive: -1.46%.
For `O=C(CCN1C(=O)S/C(=C/c2ccc(F)cc2)C1=O)Nc1ccc(O)c(C(=O)O)c1`, the Potency was inconclusive: 16.4 µM [activator, partial curve, poor fit].
With `NC(=O)c1cnn(-c2cc(Oc3ccccc3)ncn2)c1N` the Potency was inconclusive: 13 µM [activator, partial curve].
With `O=c1cc(-c2ccccc2)nc2c(-c3ccccc3)c(C(F)(F)F)[nH]n12` the Potency was inconclusive: 20.6 µM [inhibitor, partial curve, poor fit].
For `O=C(O)c1ccc(N=NNc2cccc([N+](=O)[O-])c2)cc1`, the Potency was inconclusive: 3.26 µM [activator, full curve].
For `COc1ccc(S(=O)(=O)N(C)C[C@H]2Oc3ccc(NC(=O)Nc4ccc(C(F)(F)F)cc4)cc3C(=O)N([C@H](C)CO)C[C@@H]2C)cc1`, the Potency was inconclusive: 20.6 µM [inhibitor, single point].
For `CC1(C)CC(=O)C2=C(C1)N(Cc1ccccc1)C(=O)C2(O)C(F)(F)F` (stereo not given), the “activity change, negative = inhibition” value was inactive: 9.14%.
With `CC(/C=C/C=C/c1ccccc1)=N/NC(=O)c1ccc2c(c1)OCCO2` the “activity change, negative = inhibition” value was inactive: 29.1%.
With `COC(=O)N/N=C/c1ccc(-c2ccc(Cl)c(Cl)c2)o1` the Potency was inconclusive: 29.1 µM [activator, single point].
With `CCNc1ccc(C(=O)OCC(=O)N2c3ccccc3NC(=O)C2(C)C)cc1[N+](=O)[O-]` the Potency was inconclusive: 25.9 µM [inhibitor, single point].
In the case of `COC(=O)c1ccc(NC(=O)COc2ccc([N+](=O)[O-])cc2)cc1`, the Potency is reported as inconclusive: 25.9 µM [inhibitor, single point].
In the case of `NS(=O)(=O)c1cccc(NC(=O)c2ccno2)c1`, the “activity change, negative = inhibition” value is reported as inactive: 12%.
For `Cc1ccccc1CNC(=O)CC1C(=O)NCCN1Cc1c(F)cccc1Cl` (stereo not given), the Potency was inconclusive: 14.6 µM [inhibitor, single point].
For `Cc1ccc2nc(NC(=O)C3CCN(S(=O)(=O)c4cc([N+](=O)[O-])ccc4Cl)CC3)sc2c1`, the Potency was inconclusive: 18.4 µM [inhibitor, partial curve].
In the case of `Cc1ccc(N=Cc2c(C)[nH]n(-c3ccccc3)c2=O)nc1`, the Potency is reported as inconclusive: 20.6 µM [activator, partial curve].
In the case of `CC(=NCc1ccco1)c1c(C(F)(F)F)[nH]n(-c2nc3ccccc3s2)c1=O`, the Potency is reported as inconclusive: 2.06 µM [activator, partial curve, poor fit].
In the case of `COCc1ccc(C(=O)N2CCCC(C(=O)c3ccc(SC)cc3)C2)s1` (stereo not given), the Potency is reported as inconclusive: 25.9 µM [inhibitor, single point].
For `CCOC(=O)c1c(NC(=S)Nc2ccc(C)cc2)sc2c1CCC2`, the “activity change, negative = inhibition” value was inactive: 16.2%.
With `CCSc1nnc(SCC(=O)Nc2cc(C)on2)s1` the “activity change, negative = inhibition” value was inactive: 8.47%.
For `COc1cc(=O)oc(CCC(C)O)c1C` (stereo not given), the “activity change, negative = inhibition” value was inactive: 17.4%.
